Measurements: patent publication US6147068A, “Lipophilic polyamine esters for the site specific delivery of nitric oxide in pharmaceutical use” (The University of Akron, priority 1998, dated 2000)
The name of at least one read-out is uncertain.

Experiment: Nitric oxide release profile of NONOates (nitric oxide analyzer)
Assay type: physicochemical
Conditions: PBS, pH 7.4
Method: Using a Monitor Labs Model 8440 Nitric Oxide Analyzer, interfaced with an HP 3396 A Chromatography Integrator, the nitric oxide release from the above synthesized NONOates was measured. […] Teflon® flow meters were inserted at the beginning of the circuit just before entry into the analyzer, and a helium tank with regulator was connected to the first flow meter.
The release profile was performed by adding about 3 to about 8 mg of the NO donor molecules prepared above to 25 ml of phosphate-buffered saline (PBS) (pH 7.4) in an impinger bottle that was subjected to continuous stirring. Varying amounts of the lung surfactant Survanta was added to certain samples, as were the surfactants Tween® 20 and Tween® 80. Tween® is available from Fisher Scientific Company, Fair Lawn, N.J. Still in other examples, the NONOates were simply dissolved in THF. […] The amount of liberated NO was determined by the daily or timely flushing of helium through the solution and into the analyzer. […] Eventually, readings only needed to be taken every 24 hours as the end of the release profile was approached. […]
Based on these release profiles, the half-life and % Release for each NONOate prepared above was calculated and is represented in Table I, which represents NO release in PBS at pH 7.4.

In the case of Dihexadecanylspermate-NONOate [DiHSNO], the “half-life (NO release)” value is reported as 170 h and the “half-life (NO release)” value (listed as DIHSNO) is reported as “about 7.1 days”.
